The list shows only some results of the screen, not a fair sample: it is rich in T/C values a quarter to a half above the control, in often repeated tests (any T/C) and in doses without a T/C. Other doses and runs of a compound stand elsewhere. T/C is the treated group as % of the vehicle group. Some doses have a count of surviving animals in place of a T/C: the source holds a T/C of zero for them, seemingly a mark for toxic or unscored doses. Some doses without a T/C left all or most animals alive at the check, yet need not have been tolerated: the source hardly ever lists a survival T/C far under the control, and the zero likely stands for such cases as well. Survivors were counted at the toxicity check, usually on the fifth day, unless a day is given; later deaths do not show. Schedule codes are those of the source, taken here to give the interval after Q, in days (D) or hours (H), and the number of doses after X. Some entries hold several experiments; the results are listed from low to high. Some schedules carry Z or #; the key to these is not given. Some structures stand for samples that the source files as different forms (salt, stereo form or complex); doses refer to the form tested. For survival time, this PubChem deposit counts one and a half times the control or more as active, and values a quarter to a half above the control carry no call in these data; other NCI protocols may use other cut-offs. Some T/C values carry the count of animals alive at the toxicity check (mostly the fifth day); without a count, all were alive then. Counts like (3×) give the number of equal values in this list.
System: L1210 leukemia ip in BDF1 mice, survival T/C
Assay: NCI In Vivo Anticancer Drug Screen. Data for tumor model L1210 Leukemia (intraperitoneal) in B6D2F1 (BDF1) mice
Details: T/C endpoint: mean survival time, higher T/C = longer survival
[1] = dose: 300.0 mg/kg/injection, schedule: Q01DX001 (ip), vehicle: saline
[2] = dose: 400.0 mg/kg/injection, schedule: Q04DX003 (ip), vehicle: saline with Tween-80
[3] = dose: 50.0 mg/kg/injection, schedule: Q04DX002 (ip), vehicle: other
[4] = dose: 100.0 mg/kg/injection, schedule: Q04DX002 (ip), vehicle: other
[5] = dose: 200.0 mg/kg/injection, schedule: Q04DX002 (ip), vehicle: other
[6] = dose: 400.0 mg/kg/injection, schedule: Q01DX001 (ip), vehicle: other
[7] = dose: 200.0 mg/kg/injection, schedule: Q04DX003 (ip), vehicle: saline with Tween-80
[8] = dose: 400.0 mg/kg/injection, schedule: Q01DX001 (ip), vehicle: carboxymethylcellulose (CMC)
[9] = dose: 50.0 mg/kg/injection, schedule: Q01DX009 (ip), vehicle: saline
[10] = dose: 300.0 mg/kg/injection, schedule: Q01DX009 (ip), vehicle: Klucel (hydroxypropylcellulose) (HPC)
[11] = dose: 400.0 mg/kg/injection, schedule: Q01DX009 (ip), vehicle: saline
[12] = dose: 400.0 mg/kg/injection, schedule: Q01DX009 (ip), vehicle: saline with Tween-80
[13] = dose: 200.0 mg/kg/injection, schedule: Q01DX009 (ip), vehicle: saline
[14] = dose: 100.0 mg/kg/injection, schedule: Q04DX003 (ip), vehicle: Klucel (hydroxypropylcellulose) (HPC)
[15] = dose: 600.0 mg/kg/injection, schedule: Q01DX001 (ip), vehicle: carboxymethylcellulose (CMC)
[16] = dose: 100.0 mg/kg/injection, schedule: Q01DX001 (ip), vehicle: saline
[17] = dose: 400.0 mg/kg/injection, schedule: Q01DX001 (ip), vehicle: saline
[18] = dose: 200.0 mg/kg/injection, schedule: Q04DX003 (ip), vehicle: Klucel (hydroxypropylcellulose) (HPC)
[19] = dose: 400.0 mg/kg/injection, schedule: Q01DX009 (ip), vehicle: Klucel (hydroxypropylcellulose) (HPC)

In the case of CC(C)(O)CNC1CCCCC1, the survivor count (dose: 150.0 mg/kg/injection, schedule: Q01DX001 (ip), vehicle: saline) is reported as 2 of 6 and the survivor count [1] is reported as 0 of 6.
For CCCCSP(=S)(OCC)OCC, the survivor count [2] was 0 of 6.
With C=C(COc1ccc(Cl)cc1)COc1ccc(Cl)cc1 the T/C (dose: 25.0 mg/kg/injection, schedule: Q04DX002 (ip), vehicle: other) was 95, 96, 108, 110 % of control, the T/C [3] was 93, 101, 103, 107, 142 % of control and the survivor count [3] was 3 of 3. The T/C [4] was 92, 100, 101, 104, 106, 109, 134 % of control, the survivor count [4] was 3 of 3 and 6 of 6 and the T/C [5] was 88, 90, 92, 93 (2×), 101 % of control. For the same compound, the survivor count [5] was 3 of 3 and the survivor count [6] was 3 of 3.
Cc1ccc(N2CCOC2=O)cc1N1CCOC1=O was tested, and the survivor count [7] was 6 of 6 and the survivor count [2] was 6 of 6.
For CC(=O)Nc1ccc(C(=O)O)cc1[N+](=O)[O-], the survivor count [8] was 6 of 6.
CNC(=O)NC1C(O)C(OC)OC2COC(c3ccccc3)OC21 (configuration not stated) was tested, and the survivor count [2] was 6 of 6.
In the case of C[n+]1ccccc1/C=N/O, the T/C [9] is reported as 132 % of control, the survivor count [10] is reported as 0 of 6 and the survivor count [11] is reported as 0 of 6. For the same compound, the survivor count (dose: 400.0 mg/kg/injection, schedule: Q04DX003 (ip), vehicle: saline) was 0 of 6.
In the case of CC(C)=CCC/C(C)=C/COC(=O)C(CC=C(C)C)CCN1CCN(CC=C(C)C)CC1 (configuration not stated), the survivor count [12] is reported as 6 of 6.
CSC(N)=S was tested, and the survivor count [13] was 1 of 6.
In the case of CC1=CC(=O)C(Sc2ccc(C)cc2)=CC1=O, the survivor count (dose: 300.0 mg/kg/injection, schedule: Q01DX001 (ip), vehicle: other) is reported as 3 of 6.
With COc1ccc2c(ccc3nc(C)[nH]c(=O)c32)c1 the survivor count (dose: 200.0 mg/kg/injection, schedule: Q01DX001 (ip), vehicle: Klucel (hydroxypropylcellulose) (HPC)) was 3 of 3 and the survivor count (dose: 400.0 mg/kg/injection, schedule: Q01DX001 (ip), vehicle: Klucel (hydroxypropylcellulose) (HPC)) was 0 of 3.
In the case of COc1cc2c(c(OC)c1OC)-c1cc(I)c(O)cc1[C@@H](NC(C)=O)CC2, the T/C (dose: 28.0 mg/kg/injection, schedule: Q01DX Z (ip), vehicle: carboxymethylcellulose (CMC)) is reported as 125 % of control, the T/C (dose: 37.5 mg/kg/injection, schedule: Q01DX009 (ip), vehicle: saline with Tween-80) is reported as 130 % of control and the T/C (dose: 45.0 mg/kg/injection, schedule: Q01DX Z (ip), vehicle: carboxymethylcellulose (CMC)) is reported as 132 % of control. The survivor count (dose: 60.0 mg/kg/injection, schedule: Q01DX015 (ip), vehicle: carboxymethylcellulose (CMC)) was 2 of 6, the T/C (dose: 65.0 mg/kg/injection, schedule: Q01DX Z (ip), vehicle: carboxymethylcellulose (CMC)) was 143 % of control and the survivor count (dose: 90.0 mg/kg/injection, schedule: Q01DX015 (ip), vehicle: carboxymethylcellulose (CMC)) was 0 of 6. The survivor count (dose: 100.0 mg/kg/injection, schedule: Q01DX Z (ip), vehicle: saline) was 5 of 6, the T/C [14] was 128 % of control [5 of 6 alive] and the survivor count (dose: 135.0 mg/kg/injection, schedule: Q01DX015 (ip), vehicle: carboxymethylcellulose (CMC)) was 0 of 6. For the same compound, the T/C (dose: 180.0 mg/kg/injection, schedule: Q01DX001 (ip), vehicle: carboxymethylcellulose (CMC)) was 127 and 145 % of control, the T/C (dose: 200.0 mg/kg/injection, schedule: Q01DX001 (ip), vehicle: carboxymethylcellulose (CMC)) was 129 % of control and the T/C (dose: 200.0 mg/kg/injection, schedule: Q01DX009 (ip), vehicle: saline sonified) was 132 % of control. For the same compound, the T/C (dose: 265.0 mg/kg/injection, schedule: Q01DX001 (ip), vehicle: carboxymethylcellulose (CMC)) was 125 and 134 % of control [4 of 6 alive], the survivor count [8] was 0 of 6 and the T/C [15] was 144 % of control. The survivor count [15] was 0 of 6.
In the case of O=C1OC(=C(c2ccccc2)c2ccccc2)c2ccccc21, the survivor count [11] is reported as 6 of 6.
For O=CO.[Mn], the survivor count [16] was 0 of 6, the survivor count (dose: 200.0 mg/kg/injection, schedule: Q01DX001 (ip), vehicle: saline) was 0 of 6 and the survivor count [17] was 0 of 6.
For O=NC1C(Cl)C2CC1C1C=CCC12 (configuration not stated), the survivor count (dose: 200.0 mg/kg/injection, schedule: Q01DX009 (ip), vehicle: saline with Tween-80) was 0 of 6 and the survivor count [12] was 0 of 6.
CCC(C)c1nc2c(c(=O)n(C)c(=O)n2C)n1C (configuration not stated) was tested, and the survivor count [16] was 4 of 4.
CCCCn1cncc1C was tested, and the survivor count (dose: 12.5 mg/kg/injection, schedule: Q01DX009 (ip), vehicle: saline) was 1 of 3, the survivor count (dose: 25.0 mg/kg/injection, schedule: Q01DX009 (ip), vehicle: saline) was 0 of 3 and the survivor count [9] was 0 of 3. For the same compound, the survivor count (dose: 100.0 mg/kg/injection, schedule: Q01DX009 (ip), vehicle: saline) was 0 of 3 and the survivor count [13] was 0 of 3.
CCC(C)N(C)N=Nc1ccc(C(N)=O)cc1 (configuration not stated) was tested, and the survivor count [6] was 0 of 4 and the survivor count (dose: 600.0 mg/kg/injection, schedule: Q01DX001 (ip), vehicle: other) was 0 of 4.
Nc1cc2c3c(cccc3c1Br)C(=O)N(Cc1ccccc1)C2=O was tested, and the survivor count [14] was 6 of 6 and the survivor count [18] was 6 of 6.
COC(=O)NS(=O)(=O)/C=C\n1c2ccccc2c2ccccc21 was tested, and the survivor count [10] was 1 of 6.
In the case of CN(N=O)c1ccc(CC2CCc3ccccc32)cc1 (configuration not stated), the survivor count (dose: 100.0 mg/kg/injection, schedule: Q01DX009 (ip), vehicle: Klucel (hydroxypropylcellulose) (HPC)) is reported as 6 of 6, the T/C (dose: 200.0 mg/kg/injection, schedule: Q01DX009 (ip), vehicle: Klucel (hydroxypropylcellulose) (HPC)) is reported as 138 % of control and the survivor count [19] is reported as 6 of 6.
In the case of C/C(=N/N=C(N)N)c1ccc(Cl)cc1, the survivor count (dose: 60.0 mg/kg/injection, schedule: Q01DX Z (ip), vehicle: carboxymethylcellulose (CMC)) is reported as 0 of 6, the survivor count (dose: 120.0 mg/kg/injection, schedule: Q01DX Z (ip), vehicle: carboxymethylcellulose (CMC)) is reported as 0 of 6 and the survivor count (dose: 120.0 mg/kg/injection, schedule: Q01DX Z (oral), vehicle: carboxymethylcellulose (CMC)) is reported as 4 of 6.
In the case of C#CCCC#C, the survivor count [2] is reported as 3 of 6.
O=C(O)c1cccc(-c2ccccc2)c1O was tested, and the survivor count [17] was 0 of 4.
With CON(C)CC(Cl)c1ccccc1 (configuration not stated) the survivor count (dose: 100.0 mg/kg/injection, schedule: Q04DX003 (ip), vehicle: saline with Tween-80) was 5 of 6, the survivor count [7] was 1 of 6 and the survivor count [2] was 0 of 6.
In the case of NC(N)=NCCCCNCCCN=C(N)N, the survivor count [1] is reported as 0 of 6.
O=C1C=CC(=O)N1CCCCCCCCCCN1C(=O)C=CC1=O was tested, and the survivor count (dose: 2.2 mg/kg/injection, schedule: Q01DX Z (ip), vehicle: methylcellulose (MC)) was 1 of 6, the survivor count (dose: 3.3 mg/kg/injection, schedule: Q01DX Z (ip), vehicle: methylcellulose (MC)) was 2 of 6 and the survivor count (dose: 5.0 mg/kg/injection, schedule: Q01DX Z (ip), vehicle: methylcellulose (MC)) was 2 of 6.
For C/C=C/CC1=C(O)c2ccccc2C(=O)C1=O, the survivor count (dose: 200.0 mg/kg/injection, schedule: Q01DX001 (ip), vehicle: water) was 0 of 6 and the survivor count (dose: 400.0 mg/kg/injection, schedule: Q01DX001 (ip), vehicle: water) was 0 of 6.
CCOC(=O)C(CCC(=O)O)NC(=O)OCc1ccccc1 (configuration not stated) was tested, and the survivor count [18] was 0 of 6, the survivor count [19] was 0 of 6 and the survivor count (dose: 400.0 mg/kg/injection, schedule: Q04DX003 (ip), vehicle: Klucel (hydroxypropylcellulose) (HPC)) was 0 of 6.
